Reference: PubChem BioAssay AID1671190 (National Center for Advancing Translational Sciences (NCATS), 2021)
In all, about 580,000 compounds went through this assay and about 6,100 (1.1%) were called active. This list was built around the results that the source calls inconclusive (neither active nor inactive); the mix of calls is not that of the screen. Calls come from the whole dose curve; as a rule, active = well fitted inhibition curve with a large enough effect; inconclusive = small, poorly fitted or top-dose-only effect, or another doubt; inactive = no such curve, though single readings can be large or run the other way. A potency beside an inconclusive call is a rough fit, not a confirmed value.

Chains of the proteins cited; added tags and fusions are not shown. Lines headed by an entry give the natural chain unless they say otherwise; changes in a name come on top.
UniProt P18054: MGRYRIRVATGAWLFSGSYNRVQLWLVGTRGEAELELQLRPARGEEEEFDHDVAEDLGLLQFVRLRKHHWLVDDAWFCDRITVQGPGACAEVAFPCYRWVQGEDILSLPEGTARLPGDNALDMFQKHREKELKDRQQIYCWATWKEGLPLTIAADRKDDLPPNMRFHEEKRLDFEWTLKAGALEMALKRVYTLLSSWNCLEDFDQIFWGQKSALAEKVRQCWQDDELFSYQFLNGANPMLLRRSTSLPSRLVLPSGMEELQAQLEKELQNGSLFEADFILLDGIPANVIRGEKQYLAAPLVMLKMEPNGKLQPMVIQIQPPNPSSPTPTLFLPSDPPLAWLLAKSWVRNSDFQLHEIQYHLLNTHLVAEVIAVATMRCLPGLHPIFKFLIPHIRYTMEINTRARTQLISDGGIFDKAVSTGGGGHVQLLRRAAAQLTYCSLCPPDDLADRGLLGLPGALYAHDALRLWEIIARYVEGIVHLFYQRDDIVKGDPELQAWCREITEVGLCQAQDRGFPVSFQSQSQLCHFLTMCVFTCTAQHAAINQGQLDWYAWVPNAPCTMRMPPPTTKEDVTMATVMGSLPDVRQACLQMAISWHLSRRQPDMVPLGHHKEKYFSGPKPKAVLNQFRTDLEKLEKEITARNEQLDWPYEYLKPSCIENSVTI

molecular target: Polyunsaturated fatty acid lipoxygenase ALOX12 (Homo sapiens) (UniProt P18054); experiment: Primary qHTS assay for inhibitors of human arachidonate 12S-lipoxygenase (ALOX12): Round 2; conditions: purified 12hLO, xylenol orange hydroperoxide absorbance; activity change, negative = inhibition: at 108 µM (top of the series) unless noted
Outline: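 Purified human 12hLO (150 nM final) in 25 mM Hepes, 0.01% Triton X-100, pH 7.0 was preincubated 15 min at room temperature with compound. Then 40 uM arachidonic acid was added, 30 min. Hydroperoxide was read by Fe-XO absorbance ratio 573/405 nm.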
% is set by controls: 0 for no effect and ±100 for the full control effect; potency is the fitted concentration of half-maximal effect.

SMILES | Potency | activity change, negative = inhibition
CCOc1cc(/C=C(\C#N)C(=O)OC)ccc1OCc1cccc(C(F)(F)F)c1 | inconclusive: 22.4 µM [inhibitor, full curve, poor fit] | 
O=C(NCCN1CCCC1)c1ccc(Br)cc1 | inconclusive: 89.1 µM [inhibitor, single point] | 
O=CN1CCN(C(C(=O)O)c2c[nH]c3cc(Br)ccc23)CC1 (stereo not given) | inconclusive: 39.8 µM [inhibitor, partial curve] | 
CCCCCOc1ccc(C(=O)CCC(=O)O)cc1 |  | inconclusive: -31.8% [inhibitor]
COc1ccccc1N1CCN(CCCN2CC(=O)N3CCCCC3C2=O)CC1 (stereo not given) | inconclusive: 35.5 µM [inhibitor, partial curve, poor fit] | 
Cc1cnc(C(=O)OCC(=O)Nc2sc3c(c2C#N)CCC3)cn1 | inconclusive: 6.31 µM [inhibitor, full curve, poor fit] | 
Cc1ccc2c(COC(=O)CCCN=C3NS(=O)(=O)c4ccccc43)cc(=O)oc2c1C | inconclusive: 141 µM [inhibitor, single point] | 
O=C(CSc1nc(-c2ccccc2)nc2ccccc12)Nc1nccs1 | inactive | 
COc1ccc(C)cc1NC(=O)CCN1CC(C)OC(C)C1 (stereo not given) | inconclusive: 35.5 µM [inhibitor, partial curve, poor fit] | 
O=C(Nc1nnc(-c2ccncc2)o1)c1ccc(Br)s1 | inactive | 
O=c1nc(N2CCOCC2)ccn1-c1nc(-c2ccccc2)oc1-c1ccccc1 | inactive | 
CCC1(N2CCN(S(=O)(=O)c3cccc4cccnc34)CC2)CCN(C(=O)NC)C1 (stereo not given) | inconclusive: 17.8 µM [inhibitor, full curve] | 
COc1ccccc1/C=C1/C(=O)ON=C1C | inconclusive: 3.55 µM [inhibitor, full curve, poor fit] | 
Cc1ccc(C(=O)CC(C(=O)O)c2c[nH]c3ccccc23)cc1 (stereo not given) | inconclusive: 141 µM [inhibitor, partial curve, poor fit] | 
COc1cccc(C(=O)N2C(C(=O)NCC(C)C)COC23CCN(C(=O)c2ccccc2F)CC3)c1 (stereo not given) | inactive | 
CCOC(=O)Nc1ccc2c(c1)N(C(=O)CN1CCN3CCCC3C1)c1ccccc1CC2 (stereo not given) | inconclusive: 31.6 µM [inhibitor, partial curve, poor fit] | 
CCC(C)Nc1nc(-c2ccc(Cl)cc2)cs1 (stereo not given) | inconclusive: 44.7 µM [inhibitor, partial curve, poor fit] | 
CN(C)C[C@@H]1CN(C)C[C@H]1NS(=O)(=O)c1cccc(C(F)(F)F)c1 | inactive | 
COc1ccc2c(c1)[nH]c1c(=O)n(/N=C/c3ccc(OC)c(CN4CCCC4)c3)cnc12 | inconclusive: 44.7 µM [inhibitor, partial curve, poor fit] | 
Cc1cnc(NC(=O)C2COc3ccccc3O2)s1 (stereo not given) | inconclusive: 28.2 µM [inhibitor, partial curve, poor fit] | 

SMILES | Potency | activity change, negative = inhibition
O=C(NCCC(=O)N(Cc1ccco1)C1CC1)C1CCCC1 | inactive | 
CC(=O)C1=C(S(=O)(=O)c2ccc(C)cc2)CS(=O)(=O)C1 | inconclusive: 50.1 µM [inhibitor, partial curve, poor fit] | 
CCCN1C(=O)C(Cc2nc3ccccc3c(=O)n2-c2ccc(OC)cc2)c2cc(C)ccc21 (stereo not given) | inconclusive: 70.8 µM [inhibitor, partial curve, poor fit] | 
CCCC(=O)Nc1ccc(C(=O)Nc2ccc3c(c2)nc(CCn2ccnc2C)n3C)cc1 | inactive | 
C=CCc1cc(Cl)ccc1OCCN(C)C | inconclusive: 1.41 µM [inhibitor, full curve, poor fit] | 
CCc1cccc(C)c1NC(=O)CSc1nc2c(c(=O)[nH]1)CCC2 | inconclusive: 100 µM [inhibitor, partial curve, poor fit] | 
Cc1cc(NCc2ccccn2)ccc1Br | inconclusive: 5.01 µM [inhibitor, partial curve, poor fit] | 
COc1ccc(/C=C(\NC(=O)c2ccc(C)cc2)C(=O)NC(CC(C)C)C(=O)O)cc1 (stereo not given) | inconclusive: 35.5 µM [inhibitor, full curve, poor fit] | 
O=S(=O)(c1ccccc1)N1Cc2ccccc2CC2(CCN(Cc3cccnc3)C2)C1 (stereo not given) | inconclusive: 50.1 µM [inhibitor, partial curve, poor fit] | 
COc1ccc(CNC(=O)C[C@@H]2C[C@@H](C(C)C)[C@H](CNC(C)=O)C=C2C)cc1 | inconclusive: 56.2 µM [inhibitor, partial curve] | 
COc1ccc(CN2C[C@@H]3C(=O)N(CCCN4CCCC4=O)C(=O)[C@@H]3C2)cc1OC | inactive | 
c1ccc(CN2CCN(C3CCCSc4ccccc43)CC2)cc1 (stereo not given) | inconclusive: 44.7 µM [inhibitor, partial curve, poor fit] | 
Cc1cc(Cl)c(O)c(-n2nc3ccccc3n2)c1 | inconclusive: 39.8 µM [inhibitor, partial curve, poor fit] | 
O=C1C2CCCC1C(c1ccccc1)NC2c1ccccc1 (stereo not given) | inconclusive: 35.5 µM [inhibitor, single point] | 
O=C(/C(=C/c1ccc(O)cc1)c1nc2ccccc2s1)c1ccccc1 | inconclusive: 112 µM [inhibitor, single point] | 
c1ccc(CN2CCN(CCOCCOc3cccc4ccccc34)CC2)cc1 | inconclusive: 56.2 µM [inhibitor, partial curve, poor fit] | 
Cn1cccc1/C=N/n1c(-c2ccc(Cl)cc2Cl)n[nH]c1=S | inconclusive: 12.6 µM [inhibitor, partial curve, poor fit] | 
CCCCCNC(=O)C(c1ccc(C#N)cc1)n1c(=O)c(-c2ccco2)nc2ccccc21 (stereo not given) | inconclusive: 17.8 µM [inhibitor, full curve, poor fit] | 
CCOc1ccc(NC(=O)[C@@H]2CCCN2C(=O)c2cccs2)cc1S(=O)(=O)N1CCCCC1 | inactive | 
CS(=O)(=O)N(Cc1ccccc1)c1ccc(C(=O)Nc2ccc(Cl)cc2)cc1 | inconclusive: 0.631 µM [inhibitor, full curve, poor fit] | 

Retrieved one by one from above:
SMILES | Potency | activity change, negative = inhibition
CCOc1ccc(NC(=O)[C@@H]2CCCN2C(=O)c2cccs2)cc1S(=O)(=O)N1CCCCC1 | inactive | 
O=C(/C(=C/c1ccc(O)cc1)c1nc2ccccc2s1)c1ccccc1 | inconclusive: 112 µM [inhibitor, single point] | 
